Paper PMC6468895
These are yes or no findings as the source states them, for the method shown. Binding seen in cells or lysates may run through a third protein. Some entries that bind do so weakly or less than the wild type.

Protein sequences, listed by entry. Tags and fused reporters are not part of them.
UniProt P17302: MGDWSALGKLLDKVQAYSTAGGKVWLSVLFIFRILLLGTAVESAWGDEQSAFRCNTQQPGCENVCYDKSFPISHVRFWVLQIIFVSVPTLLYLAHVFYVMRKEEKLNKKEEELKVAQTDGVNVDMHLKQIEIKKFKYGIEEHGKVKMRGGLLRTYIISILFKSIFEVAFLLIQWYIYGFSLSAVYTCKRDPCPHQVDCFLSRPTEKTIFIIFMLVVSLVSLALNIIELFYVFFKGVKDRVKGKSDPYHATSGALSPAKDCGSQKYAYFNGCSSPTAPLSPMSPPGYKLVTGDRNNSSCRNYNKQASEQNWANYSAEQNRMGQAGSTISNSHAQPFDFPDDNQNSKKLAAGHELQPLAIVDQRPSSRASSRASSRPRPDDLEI
UniProt P35222: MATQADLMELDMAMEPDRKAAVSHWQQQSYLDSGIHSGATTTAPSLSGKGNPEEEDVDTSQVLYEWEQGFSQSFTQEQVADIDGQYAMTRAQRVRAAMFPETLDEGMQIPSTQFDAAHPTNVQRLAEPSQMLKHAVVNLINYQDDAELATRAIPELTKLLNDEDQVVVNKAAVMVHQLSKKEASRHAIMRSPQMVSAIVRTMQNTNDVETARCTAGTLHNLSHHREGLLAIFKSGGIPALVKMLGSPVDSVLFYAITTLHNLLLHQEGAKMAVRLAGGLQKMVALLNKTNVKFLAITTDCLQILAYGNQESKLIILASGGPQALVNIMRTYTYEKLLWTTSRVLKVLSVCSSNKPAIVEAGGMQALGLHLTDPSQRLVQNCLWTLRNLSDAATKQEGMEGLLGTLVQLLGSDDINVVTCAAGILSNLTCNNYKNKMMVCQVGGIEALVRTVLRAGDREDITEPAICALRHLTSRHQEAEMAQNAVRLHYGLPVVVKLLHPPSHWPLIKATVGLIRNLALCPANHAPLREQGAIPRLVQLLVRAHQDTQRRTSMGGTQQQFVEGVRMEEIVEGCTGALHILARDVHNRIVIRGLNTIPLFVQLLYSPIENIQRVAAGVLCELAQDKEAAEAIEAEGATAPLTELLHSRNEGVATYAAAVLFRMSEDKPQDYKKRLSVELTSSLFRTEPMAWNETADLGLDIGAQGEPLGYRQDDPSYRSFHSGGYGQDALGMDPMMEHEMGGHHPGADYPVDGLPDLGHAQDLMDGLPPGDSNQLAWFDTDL

Target: connexin 43 (human (endogenous in HMT-3522 S1)) (UniProt P17302)
Test: co-IP; IP of endogenous Cx43 (0.25 μg rabbit polyclonal Cx43 antibody, protein G sepharose beads, 300 μg of proteins) from whole cell lysates of S1 cells in 2-D culture, day 6; Western blotting for Cx43, β-catenin and ZO-2

For β-catenin (from UniProt P35222 1-781), the binding was “binds”.

B1: ZO-2 (protein, UniProt Q9UDY2 1-1190)
chain: MPVRGDRGFPPRRELSGWLRAPGMEELIWEQYTVTLQKDSKRGFGIAVSGGRDNPHFENGETSIVISDVLPGGPADGLLQENDRVVMVNGTPMEDVLHSFAVQQLRKSGKVAAIVVKRPRKVQVAALQASPPLDQDDRAFEVMDEFDGRSFRSGYSERSRLNSHGGRSRSWEDSPERGRPHERARSRERDLSRDRSRGRSLERGLDQDHARTRDRSRGRSLERGLDHDFGPSRDRDRDRSRGRSIDQDYERAYHRAYDPDYERAYSPEYRRGARHDARSRGPRSRSREHPHSRSPSPEPRGRPGPIGVLLMKSRANEEYGLRLGSQIFVKEMTRTGLATKDGNLHEGDIILKINGTVTENMSLTDARKLIEKSRGKLQLVVLRDSQQTLINIPSLNDSDSEIEDISEIESNRSFSPEERRHQYSDYDYHSSSEKLKERPSSREDTPSRLSRMGATPTPFKSTGDIAGTVVPETNKEPRYQEDPPAPQPKAAPRTFLRPSPEDEAIYGPNTKMVRFKKGDSVGLRLAGGNDVGIFVAGIQEGTSAEQEGLQEGDQILKVNTQDFRGLVREDAVLYLLEIPKGEMVTILAQSRADVYRDILACGRGDSFFIRSHFECEKETPQSLAFTRGEVFRVVDTLYDGKLGNWLAVRIGNELEKGLIPNKSRAEQMASVQNAQRDNAGDRADFWRMRGQRSGVKKNLRKSREDLTAVVSVSTKFPAYERVLLREAGFKRPVVLFGPIADIAMEKLANELPDWFQTAKTEPKDAGSEKSTGVVRLNTVRQIIEQDKHALLDVTPKAVDLLNYTQWFPIVIFFNPDSRQGVKTMRQRLNPTSNKSSRKLFDQANKLKKTCAHLFTATINLNSANDSWFGSLKDTIQHQQGEAVWVSEGKMEGMDDDPEDRMSYLTAMGADYLSCDSRLISDFEDTDGEGGAYTDNELDEPAEEPLVSSITRSSEPVQHEESIRKPSPEPRAQMRRAASSDQLRDNSPPPAFKPEPPKAKTQNKEESYDFSKSYEYKSNPSAVAGNETPGASTKGYPPPVAAKPTFGRSILKPSTPIPPQEGEEVGESSEEQDNAPKSVLGKVKIFEKMDHKARLQRMQELQEAQNARIEIAQKHPDIYAVPIKTHKPDPGTPQHTSSRPPEPQKAPSRPYQDTRGSYGSDAEEEEYRQQLSEHSKRGYYGQSARYRDTEL
For B1, the binding was “binds”.
